Out of some 200,000 compounds screened, about 25 (0.01%) were called active. Inconclusive results, whose numbers are uncertain, are shown with a selection of clear calls. Calls follow the shape of the dose curve; as a rule, active = well fitted inhibition curve with a large enough effect in the signal ratio, with a control signal flat (not every such curve was filed as active); inconclusive = small, poorly fitted or top-dose-only effect, or effect the other way, or a change in a side signal; inactive = flat fitted curve, though single readings scatter; the % refers to the signal ratio. A potency beside an inconclusive call is a rough fit, not a confirmed value.
Test: qHTS Assay for Modulators of Lamin A Splicing
Conditions: HeLa LMNA splicing GFP/RFP minigene ratio, 48 h; ratio change, negative = inhibition: at 46.1 µM (top of the series) unless noted
From the text: NCGC Assay Overview: Hutchinson-Gilford Progeria Syndrome (HGPS) is a pediatric premature aging disease caused by a spontaneous mutation in the lamin A/C (LMNA) gene. The mutation activates a cryptic splice site in the LMNA pre-mRNA which results in production of a pre-lamin A protein that cannot be processed properly. The mutant protein accumulates in the nucleus and negatively affects numerous cellular functions. Correction of the splicing defect in HGPS patient cells using a targeted oligonucleotide (exo11) leads to reversal of the cellular disease phenotypes. To identify small molecule modulators of aberrant LMNA splicing, a homogenous assay was constructed in HeLa cells that used a GFP containing minigene to report on correction of aberrant splicing in lamin A and a RFP (DsRed2) to report on cell viability, uniformity and nonspecific effects on the assay signal. This assay was adapted to laser-scanning microplate cytometry (Acumen, TTP Labtech) where miniaturization of the assay to a 1,536-well plate format was possible. References: Bowen, W. P.; Wylie, P. G. Application of Laser-Scanning Fluorescence Microplate Cytometry in High Content Screening. Assay Drug Dev Technol 2006;4:209-221. Scaffidi P, Misteli T. Reversal of the cellular phenotype in the premature aging disease Hutchinson-Gilford progeria syndrome. Nat.
NCGC Assay Protocol Summary: Reagents/Controls: Stable clones expressing DsRed2 and lamin A-EGFP were generated by Cell and Molecular Technologies in S3 HeLa cells. HeLa cells were prepared for the assay when they were 70-90% confluent. The cells were counted and resuspended in Opti-MEM I (no phenol red; Gibco), 2% FBS, 1% penicillin/ streptomycin (Gibco) at concentration of 120 cells/uL concentration. The suspension was passed through a Falcon basket filter with pore size 40um (Beckton Dickson). Control titrations: column […] 1536-well plate contained a sixteen point titration (1:2 dilutions) in duplicate of ancitabine (Sigma: A8598) beginning at 40 uM final concentration. Column 2 contained a sixteen point titration (1:2 dilutions) of cycloheximide beginning at 1.4 mM final concentration. Column 3 contained ancitabine at 40 uM and column 4 contained was the vehicle control (0.5% DMSO final concentration). Assay Steps: 5 uL of HeLa cells were plated in Aurora LoBase black clear bottom (cyclic-olefin polymer) 1536-well plates at a final density of 600 cells/well. Controls and library compounds were added with a 1536-well pin array using the Kalypsys pin-tool. The plates were then incubated for 48 hrs in a cell-culture incubator (37 °C; 5% CO2, 98% humidity). Following incubation the plates were read on the Acumen Explorer using the 488 nm laser. Data was collected on objects between 10 and 100 um in size. Cell objects were defined by a 15 um width x 10 um depth filter. The ratio of the total object intensity in PMT1 (500-530 nm emission; GFP) over PMT3 (575-640 nm emission; RFP) was calculated for analysis. Keywords: NIH Roadmap, MLSCN, MLI, MLSMR, qHTS, NCGC, lamin A, Progeria, RNA splicing.
% is scaled to controls: 0 for no effect and ±100 for the full control effect; potency is read from the fitted curve at half-maximal effect.

| SMILES | ratio change, negative = inhibition | Potency |
| --- | --- | --- |
| CC(C)c1cnc2c(c1SCC(=O)Nc1cccc([N+](=O)[O-])c1)c(=O)n(C)c(=O)n2C | inactive: -9.02% [at 46 µM] |  |
| Nc1ccccc1Nc1cccc(C(F)(F)F)c1 | inconclusive: -33% [at 9.22 µM] |  |
| CC(C)OC(=O)c1c(NC(=O)c2cc3nc(-c4ccccc4)cc(C(F)(F)F)n3n2)sc2c1CCCC2 | inconclusive: 8.69% [at 46 µM] |  |
| COc1ccc(CCN(C)CCc2ccc(OC)c(OC)c2)cc1OC | inactive: -12% |  |
| O=C(/C=C/c1ccccc1)Nc1nc(-c2cccs2)ns1 | inactive: -2.11% [at 46 µM] |  |
| CCC(C)n1c(SCc2ccc([N+](=O)[O-])cc2)nc2ccsc2c1=O (stereo not given) |  | inconclusive: 35.5 µM [fluorescent, single point] |
| Cn1c(=O)c(C(=O)COC(=O)c2cc(C3CC3)nc3ccccc23)c(N)n(Cc2ccccc2)c1=O |  | inconclusive: 22.4 µM [fluorescent, single point] |
| COc1cccc(NC(=O)CN(C)CC(=O)Nc2ccc(Cl)cc2[N+](=O)[O-])c1 | inconclusive: 35.2% [at 9.22 µM] |  |
| COc1ccc(S(=O)(=O)N2N=C(c3ccc(NS(C)(=O)=O)cc3)CC2c2ccco2)cc1 (stereo not given) | inactive: 9.33% [at 9.22 µM] |  |
| S=c1nc(-c2ccccc2Cl)n(Cc2cccnc2)c2c1CCCC2 | inconclusive: -5.1% |  |
| O=C(C1=C(O)C(=O)N(CCCN2CCOCC2)C1c1ccccn1)c1cc2ccccc2o1 (stereo not given) | inactive: 4.64% |  |
| COc1ccc(-c2cc(-c3cccs3)c(C#N)c(SCC(=O)NCc3ccco3)n2)cc1 | inconclusive: 13.6% |  |
| Cc1[nH]c2ccccc2c1CN1CCc2ccccc2C1 | inconclusive: 4.88% |  |
| COC(=O)c1[nH]c2cccc(OC)c2c1NC(=O)CCN1CCN(c2cccc(Cl)c2)CC1 |  | inconclusive: 35.5 µM [falling, single point] |
| CC(=O)NC(CC(=O)Nc1ccc(S(=O)(=O)N2CCCC2)cc1)c1ccccc1 (stereo not given) | inactive: 6.96% |  |
| CC(=O)c1ccc(N2CCN(C(=O)Nc3ccc(F)cc3F)CC2)cc1 | inactive: -0.904% [at 46 µM] |  |
| Clc1cc(Sc2ccc(Br)cc2)nnc1-c1ccccc1 |  | inconclusive: 35.5 µM [rising, single point] |
| Cc1ccc(S(=O)(=O)NC(=O)c2ccc(Br)o2)cc1 | inconclusive: -2.84% |  |
| COC(=O)Cc1ccc(NC(=O)c2ccc(C(C)(C)C)cc2)cc1 |  | inconclusive: 10 µM [falling, partial curve] |
| CN(Cc1ccccc1)C(=S)Nc1cccnc1 | inconclusive: 19.1% [at 46 µM] |  |

Not a retest: entries from further up.

| SMILES | ratio change, negative = inhibition | Potency |
| --- | --- | --- |
| Cc1ccc(S(=O)(=O)NC(=O)c2ccc(Br)o2)cc1 | inconclusive: -2.84% |  |
| COC(=O)Cc1ccc(NC(=O)c2ccc(C(C)(C)C)cc2)cc1 |  | inconclusive: 10 µM [falling, partial curve] |

Going on with the list:

| SMILES | ratio change, negative = inhibition | Potency |
| --- | --- | --- |
| COc1ccc2[nH]cc(C(=O)CN3CCN(C4CCCCC4)CC3)c2c1 | inactive: -1.16% |  |
| CSc1ncc(C(=O)Nc2cccc(Cl)c2C)c(-c2ccccc2)n1 | inactive: 29.4% [at 46 µM] |  |
| COc1ccc(Cn2ccnc2)cc1Br | inconclusive: -5.29% |  |
| CCN(CC)S(=O)(=O)c1ccc(C2=NOC3(C2)N(C)c2ccccc2C3(C)C)cc1 (stereo not given) |  | inconclusive: 6.31 µM [fluorescent, full curve] |
| COc1ccc(-c2[nH]ncc2/C=C(/C#N)C(=O)NC2CCCCCC2)cc1 |  | inconclusive: 35.5 µM [falling, single point] |
| Cn1c(=O)c2cc(S(=O)(=O)Nc3ccc4c(c3)OCO4)ccc2n(C)c1=O | inconclusive: -30.5% |  |
| CCOc1cc(C(=O)Nc2ccc(F)cc2)cc(Br)c1OC | inconclusive: -21.8% |  |
| CCOC(=O)COc1ccc(C(=O)c2ccccc2)c(O)c1 | inactive: 8.9% |  |
| Cc1ccc(CNC(=O)Cn2cc(C(=O)c3ccc(Cl)cc3)c(=O)c3ccc(C)nc32)cc1 | inactive: 7.76% [at 46 µM] |  |
| O=C(Oc1ccc2c(c1)OCO2)c1cc2c(s1)CCC2 | inconclusive: 0.842% |  |
| Cc1cc(C)nc(Nc2n[nH]c(-c3ccc(C(C)(C)C)cc3)n2)n1 | inconclusive: 1.48% [at 46 µM] |  |
| N#Cc1c(NC(=O)CSc2ncnc3sccc23)oc(-c2ccco2)c1-c1ccco1 | inactive: -8.37% |  |
| Cc1ccc(NC(CNS(=O)(=O)c2ccc(Cl)cc2)c2ccccc2)cc1 (stereo not given) |  | inconclusive: 22.4 µM [cytotoxic, partial curve] |
| O=c1[nH]c2ccccc2nc1/C=C/c1ccc(O)cc1 | inconclusive: -30.4% [at 46 µM] |  |
| CCOc1ccccc1NC(=O)N1CCC(c2nc3ccc(C)cc3[nH]2)CC1 | inconclusive: 1.86% |  |
| CCOC(=O)c1cnc(NCc2ccc(Cl)cc2)c2ccccc12 | inconclusive: -30.4% [at 46 µM] |  |
| O=C(NCc1ccccc1)c1ccc(Oc2ccc(C(=O)NCc3ccccc3)cc2)cc1 | inactive: -4.13% |  |
| CN(C)c1nc(-c2ccc3c(c2)OCO3)nc2ccccc12 |  | inconclusive: 15.8 µM [inhibitor, single point] |
| COc1ccc(NC(=O)CSc2nc3ccccc3nc2Cc2ccc(C)cc2)cc1Cl | inconclusive: 25.4% [at 46 µM] |  |
| CC(=O)Oc1c(C)cccc1C(=O)O | inconclusive: -25.8% |  |

From PubChem BioAssay AID1487 (National Center for Advancing Translational Sciences (NCATS), 2009)
